Laboratory results from the supplement of paper PMC11732987, “Enantioselective OTUD7B fragment discovery through chemoproteomics screening and high-throughput optimisation” (Communications Chemistry, 2025).
The list shows a part of the results. The data scatter; read single values as rough.

Chains of the proteins cited; added tags and fusions are not shown. Lines headed by an entry give the natural chain unless they say otherwise; changes in a name come on top. Residues count along the entry.
UniProt Q5TFE4: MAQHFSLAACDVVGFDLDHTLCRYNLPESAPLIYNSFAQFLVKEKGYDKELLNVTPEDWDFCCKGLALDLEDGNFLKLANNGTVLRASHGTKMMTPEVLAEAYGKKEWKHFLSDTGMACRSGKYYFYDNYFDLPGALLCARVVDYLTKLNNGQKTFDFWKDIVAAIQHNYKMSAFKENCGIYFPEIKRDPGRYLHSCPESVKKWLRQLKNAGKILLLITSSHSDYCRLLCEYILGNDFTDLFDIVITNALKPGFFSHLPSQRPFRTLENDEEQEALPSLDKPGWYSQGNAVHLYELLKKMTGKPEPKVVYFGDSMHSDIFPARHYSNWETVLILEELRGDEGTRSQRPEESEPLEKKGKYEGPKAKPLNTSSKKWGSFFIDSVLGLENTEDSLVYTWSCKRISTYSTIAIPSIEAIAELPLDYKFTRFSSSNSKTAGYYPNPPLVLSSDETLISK
UniProt Q9H649: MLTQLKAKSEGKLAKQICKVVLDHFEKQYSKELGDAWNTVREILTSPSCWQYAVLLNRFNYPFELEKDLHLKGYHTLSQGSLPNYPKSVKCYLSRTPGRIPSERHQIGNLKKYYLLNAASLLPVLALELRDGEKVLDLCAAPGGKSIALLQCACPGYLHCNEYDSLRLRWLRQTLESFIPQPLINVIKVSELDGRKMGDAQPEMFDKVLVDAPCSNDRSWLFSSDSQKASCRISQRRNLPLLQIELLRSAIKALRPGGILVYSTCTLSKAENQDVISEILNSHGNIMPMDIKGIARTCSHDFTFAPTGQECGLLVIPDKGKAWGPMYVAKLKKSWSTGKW
UniProt Q96RS6: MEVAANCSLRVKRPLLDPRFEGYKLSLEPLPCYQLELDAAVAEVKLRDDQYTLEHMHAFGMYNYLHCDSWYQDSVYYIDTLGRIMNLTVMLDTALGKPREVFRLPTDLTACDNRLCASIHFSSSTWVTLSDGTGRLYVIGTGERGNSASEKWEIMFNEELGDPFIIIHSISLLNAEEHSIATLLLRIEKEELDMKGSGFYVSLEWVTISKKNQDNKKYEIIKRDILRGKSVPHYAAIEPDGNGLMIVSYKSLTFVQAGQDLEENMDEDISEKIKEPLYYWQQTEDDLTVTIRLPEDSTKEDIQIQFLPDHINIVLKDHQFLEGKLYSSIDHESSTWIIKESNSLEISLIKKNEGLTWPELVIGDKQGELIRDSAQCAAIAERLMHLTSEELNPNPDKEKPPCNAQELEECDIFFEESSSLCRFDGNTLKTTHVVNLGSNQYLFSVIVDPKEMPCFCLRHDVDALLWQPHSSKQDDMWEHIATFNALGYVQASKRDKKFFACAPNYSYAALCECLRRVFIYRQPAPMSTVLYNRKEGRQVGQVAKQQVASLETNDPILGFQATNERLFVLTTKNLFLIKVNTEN
UniProt Q9BW91: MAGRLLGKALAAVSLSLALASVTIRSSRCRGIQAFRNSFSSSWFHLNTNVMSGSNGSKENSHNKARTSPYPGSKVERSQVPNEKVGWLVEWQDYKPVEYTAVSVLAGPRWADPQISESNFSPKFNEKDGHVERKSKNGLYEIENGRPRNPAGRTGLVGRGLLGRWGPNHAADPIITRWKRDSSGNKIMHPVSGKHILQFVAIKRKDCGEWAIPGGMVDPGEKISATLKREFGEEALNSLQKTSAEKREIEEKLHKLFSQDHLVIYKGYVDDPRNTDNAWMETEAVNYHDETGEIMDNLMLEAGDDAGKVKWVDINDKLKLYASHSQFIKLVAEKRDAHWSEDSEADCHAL
UniProt Q6ZVK8, 2-37: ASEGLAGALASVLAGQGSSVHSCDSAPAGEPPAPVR
UniProt O15381: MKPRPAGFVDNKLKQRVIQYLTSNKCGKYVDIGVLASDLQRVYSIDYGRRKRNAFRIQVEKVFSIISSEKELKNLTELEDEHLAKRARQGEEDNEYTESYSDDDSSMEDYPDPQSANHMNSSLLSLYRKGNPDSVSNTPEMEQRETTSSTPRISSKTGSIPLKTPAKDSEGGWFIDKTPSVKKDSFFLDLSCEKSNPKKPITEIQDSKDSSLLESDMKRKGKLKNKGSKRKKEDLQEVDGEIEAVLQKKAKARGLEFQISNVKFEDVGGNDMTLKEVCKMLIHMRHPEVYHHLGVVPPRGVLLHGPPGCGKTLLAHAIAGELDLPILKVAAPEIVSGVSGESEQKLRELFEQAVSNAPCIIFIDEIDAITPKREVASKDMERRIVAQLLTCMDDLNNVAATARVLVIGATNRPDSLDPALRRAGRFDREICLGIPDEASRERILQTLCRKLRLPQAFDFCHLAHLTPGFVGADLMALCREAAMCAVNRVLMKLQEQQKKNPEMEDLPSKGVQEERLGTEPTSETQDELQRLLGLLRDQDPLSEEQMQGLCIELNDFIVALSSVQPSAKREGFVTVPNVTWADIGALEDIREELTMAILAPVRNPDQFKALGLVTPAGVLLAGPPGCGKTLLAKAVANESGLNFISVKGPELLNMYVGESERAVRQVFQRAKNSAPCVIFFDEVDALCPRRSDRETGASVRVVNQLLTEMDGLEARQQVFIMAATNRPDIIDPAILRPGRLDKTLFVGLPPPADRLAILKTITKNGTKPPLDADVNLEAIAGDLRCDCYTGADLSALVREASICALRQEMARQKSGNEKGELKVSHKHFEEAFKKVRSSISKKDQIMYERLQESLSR
UniProt Q96P11: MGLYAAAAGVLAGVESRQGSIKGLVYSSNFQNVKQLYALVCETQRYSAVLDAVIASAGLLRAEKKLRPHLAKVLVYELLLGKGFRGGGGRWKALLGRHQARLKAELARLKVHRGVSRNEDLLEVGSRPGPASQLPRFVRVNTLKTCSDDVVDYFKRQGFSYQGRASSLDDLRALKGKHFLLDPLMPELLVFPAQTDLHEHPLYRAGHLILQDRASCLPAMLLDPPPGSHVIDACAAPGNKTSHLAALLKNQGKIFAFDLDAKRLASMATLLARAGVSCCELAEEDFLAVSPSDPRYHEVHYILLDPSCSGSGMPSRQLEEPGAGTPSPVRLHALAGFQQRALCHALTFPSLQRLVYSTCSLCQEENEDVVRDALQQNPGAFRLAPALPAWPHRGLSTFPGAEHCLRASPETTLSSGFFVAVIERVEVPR
UniProt O15118: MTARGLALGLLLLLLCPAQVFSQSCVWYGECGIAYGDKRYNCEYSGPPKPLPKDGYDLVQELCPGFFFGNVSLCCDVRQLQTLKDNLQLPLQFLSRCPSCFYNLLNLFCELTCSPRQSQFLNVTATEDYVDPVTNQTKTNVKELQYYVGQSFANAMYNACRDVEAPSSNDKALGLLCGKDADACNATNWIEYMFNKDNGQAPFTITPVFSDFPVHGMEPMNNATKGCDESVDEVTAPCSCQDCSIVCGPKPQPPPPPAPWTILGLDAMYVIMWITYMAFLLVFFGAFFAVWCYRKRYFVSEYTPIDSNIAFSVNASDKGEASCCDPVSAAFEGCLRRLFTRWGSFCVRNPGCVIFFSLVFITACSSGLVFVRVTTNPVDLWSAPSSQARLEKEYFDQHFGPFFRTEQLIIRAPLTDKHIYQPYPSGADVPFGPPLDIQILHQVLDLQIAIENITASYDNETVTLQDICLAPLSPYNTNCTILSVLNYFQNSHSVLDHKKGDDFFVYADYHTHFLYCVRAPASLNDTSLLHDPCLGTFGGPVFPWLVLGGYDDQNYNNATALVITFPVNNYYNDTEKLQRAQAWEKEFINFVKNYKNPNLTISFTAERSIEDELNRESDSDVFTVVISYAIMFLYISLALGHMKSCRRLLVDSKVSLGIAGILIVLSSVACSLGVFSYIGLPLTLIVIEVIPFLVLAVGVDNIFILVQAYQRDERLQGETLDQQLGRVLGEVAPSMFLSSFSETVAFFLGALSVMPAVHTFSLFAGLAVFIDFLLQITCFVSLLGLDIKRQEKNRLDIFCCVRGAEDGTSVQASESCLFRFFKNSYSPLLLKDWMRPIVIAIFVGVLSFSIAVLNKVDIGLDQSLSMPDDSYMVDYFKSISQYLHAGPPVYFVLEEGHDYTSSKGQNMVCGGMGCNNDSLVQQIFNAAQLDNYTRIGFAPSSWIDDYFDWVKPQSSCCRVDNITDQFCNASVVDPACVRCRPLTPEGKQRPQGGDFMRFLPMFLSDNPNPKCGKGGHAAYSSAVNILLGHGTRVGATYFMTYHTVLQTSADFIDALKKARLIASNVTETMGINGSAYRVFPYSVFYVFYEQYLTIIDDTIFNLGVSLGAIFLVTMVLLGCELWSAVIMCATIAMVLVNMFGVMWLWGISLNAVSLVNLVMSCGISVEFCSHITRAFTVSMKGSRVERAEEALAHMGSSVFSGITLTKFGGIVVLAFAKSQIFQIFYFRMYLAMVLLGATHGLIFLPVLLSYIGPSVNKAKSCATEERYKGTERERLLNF
UniProt O75694: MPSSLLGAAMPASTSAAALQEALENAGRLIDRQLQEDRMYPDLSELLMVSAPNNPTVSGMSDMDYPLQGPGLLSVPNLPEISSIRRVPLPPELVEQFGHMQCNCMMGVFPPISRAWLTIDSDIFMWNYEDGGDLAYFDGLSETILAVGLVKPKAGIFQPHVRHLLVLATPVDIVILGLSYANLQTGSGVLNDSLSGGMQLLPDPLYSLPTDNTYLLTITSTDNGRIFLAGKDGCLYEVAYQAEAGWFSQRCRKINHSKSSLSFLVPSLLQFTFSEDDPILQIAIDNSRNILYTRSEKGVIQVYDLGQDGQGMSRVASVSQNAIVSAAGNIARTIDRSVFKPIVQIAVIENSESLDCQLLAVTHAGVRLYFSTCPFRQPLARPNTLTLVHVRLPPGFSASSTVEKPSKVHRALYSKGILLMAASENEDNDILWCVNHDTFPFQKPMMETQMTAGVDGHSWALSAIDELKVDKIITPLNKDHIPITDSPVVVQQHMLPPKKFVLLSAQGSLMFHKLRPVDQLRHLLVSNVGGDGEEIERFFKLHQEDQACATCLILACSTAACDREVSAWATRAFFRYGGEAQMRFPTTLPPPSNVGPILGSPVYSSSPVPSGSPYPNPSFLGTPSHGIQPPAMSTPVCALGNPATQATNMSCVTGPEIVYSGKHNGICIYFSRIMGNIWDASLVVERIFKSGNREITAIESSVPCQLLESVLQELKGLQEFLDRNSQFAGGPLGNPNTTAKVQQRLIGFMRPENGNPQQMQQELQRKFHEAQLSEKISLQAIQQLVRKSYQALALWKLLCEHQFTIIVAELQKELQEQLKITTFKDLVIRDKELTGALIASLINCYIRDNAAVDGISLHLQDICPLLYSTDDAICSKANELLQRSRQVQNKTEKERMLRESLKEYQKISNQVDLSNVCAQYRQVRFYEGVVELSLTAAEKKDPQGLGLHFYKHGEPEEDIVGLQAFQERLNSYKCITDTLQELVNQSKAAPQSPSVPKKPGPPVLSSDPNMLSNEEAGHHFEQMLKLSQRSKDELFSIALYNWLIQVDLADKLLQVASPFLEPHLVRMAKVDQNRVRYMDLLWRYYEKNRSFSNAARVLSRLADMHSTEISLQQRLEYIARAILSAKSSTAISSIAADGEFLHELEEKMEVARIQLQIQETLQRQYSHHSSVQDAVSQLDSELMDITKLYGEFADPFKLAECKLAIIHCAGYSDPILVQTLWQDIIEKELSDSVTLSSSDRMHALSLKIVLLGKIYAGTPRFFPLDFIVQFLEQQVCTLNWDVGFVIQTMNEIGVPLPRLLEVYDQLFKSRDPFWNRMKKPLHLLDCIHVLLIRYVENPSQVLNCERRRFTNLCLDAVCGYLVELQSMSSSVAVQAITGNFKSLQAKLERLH
UniProt Q9UHY1: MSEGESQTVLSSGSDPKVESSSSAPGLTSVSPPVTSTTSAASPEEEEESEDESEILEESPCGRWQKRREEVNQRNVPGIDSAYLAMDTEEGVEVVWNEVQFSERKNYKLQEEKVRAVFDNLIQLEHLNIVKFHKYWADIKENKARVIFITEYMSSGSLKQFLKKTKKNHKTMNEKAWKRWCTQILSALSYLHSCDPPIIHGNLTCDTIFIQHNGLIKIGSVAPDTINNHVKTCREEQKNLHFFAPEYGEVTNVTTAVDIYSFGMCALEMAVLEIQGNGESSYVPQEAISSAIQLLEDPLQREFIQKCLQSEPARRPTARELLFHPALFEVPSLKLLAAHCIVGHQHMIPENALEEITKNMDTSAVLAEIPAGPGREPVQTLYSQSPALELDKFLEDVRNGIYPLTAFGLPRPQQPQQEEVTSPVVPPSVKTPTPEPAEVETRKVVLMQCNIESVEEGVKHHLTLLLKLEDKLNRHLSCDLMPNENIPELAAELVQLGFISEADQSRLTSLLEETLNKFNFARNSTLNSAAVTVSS
UniProt Q9NPF4: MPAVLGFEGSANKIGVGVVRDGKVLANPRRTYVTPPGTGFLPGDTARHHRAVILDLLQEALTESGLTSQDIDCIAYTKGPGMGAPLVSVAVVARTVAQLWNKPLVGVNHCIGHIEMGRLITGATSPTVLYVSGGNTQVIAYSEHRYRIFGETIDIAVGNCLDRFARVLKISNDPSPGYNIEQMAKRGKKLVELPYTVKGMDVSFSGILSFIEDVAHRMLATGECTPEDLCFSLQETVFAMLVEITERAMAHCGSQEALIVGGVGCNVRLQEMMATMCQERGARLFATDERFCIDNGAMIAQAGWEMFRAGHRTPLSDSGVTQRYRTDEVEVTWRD

compound: ClCC(=O)N[C@@H]1CCCc2ccccc12; assay: log2 mean competition ratio of IA-DTB cysteine labelling (DMSO/compound) (log2 ratio); higher = stronger cysteine engagement by compound; details: 50 µM; treatment time: 4 h; cell line lysate: HEK293T
Description: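 IA-DTB competitive cysteine chemoproteomics in HEK293T RIPA lysate. Lysates were treated with compound 29 or 30 at 50 or 200 µM for 4 h, then IA-DTB (500 µM, 1 h), trypsin-digested, NeutrAvidin-enriched and analysed by diaPASEF. Competition ratio = intensity DMSO / intensity compound (n=4 treated, n=64 DMSO); binding: mean log2 CR ≥ 1 and p ≤ 0.05 plus QC filters. Target is the cysteine site.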

Row | Target | log2 mean competition ratio
1 | NT5DC1 C119 (UniProt Q5TFE4) | 0.277
2 | NUP188 C1270 (UniProt Q5SRE5) | -0.0571
3 | NSUN6 C415 (UniProt Q8TEA1) | 0.246
4 | NSUN3 C214 (UniProt Q9H649) | -0.238
5 | NUDCD1 C111 (UniProt Q96RS6) | -0.0982
6 | NUP160 C1166 (UniProt Q12769) | -0.0817
7 | NR3C2 C308 | 0.18
8 | NPEPPS C265 (UniProt P55786) | -0.00756
9 | NTAN1 C118 (UniProt Q96AB6) | -0.235
10 | NR3C2 C279 | -0.0465
11 | NR3C1 C457 (UniProt P04150) | 0.146
12 | NSDHL C86 | -0.267
13 | NUDT3 C68 (UniProt O95989) | 0.0173
14 | NPTX1 C89 (UniProt Q15818) | -0.0163
15 | OSBPL3 C337 (UniProt Q9H4L5) | 0.212
16 | NUDT9 C347 (UniProt Q9BW91) | -0.237
17 | NUP153 C593 (UniProt P49790) | 0.616
18 | NRDE2 C1088 (UniProt Q9H7Z3) | 0.0944
19 | NUMB C58 (UniProt P49757) | 0.0858

Row | Target | log2 mean competition ratio
20 | NUDT18 C24 (UniProt Q6ZVK8) | -0.337
21 | NPLOC4 C188 | -0.118
22 | NT5DC1 C197 (UniProt Q5TFE4) | -0.108
23 | ORC1 C506 (UniProt Q13415) | 0.208
24 | NUBP1 C307 (UniProt P53384) | -0.558
25 | NUP85 C603 (UniProt Q9BW27) | -0.101
26 | OTUB2 C13 (UniProt Q96DC9) | -0.269
27 | NVL C309 (UniProt O15381) | 0.104
28 | NSUN5 C41 (UniProt Q96P11) | -0.55
29 | NPC1 C1261 (UniProt O15118) | -0.0722
30 | NSMCE2 C140 (UniProt Q96MF7) | 0.0892
31 | NOVA2 C21 | 0.00979
32 | NR1D2 C374 | -0.00729
33 | NUP155 C1344 (UniProt O75694) | -0.254
34 | OSBPL1A C520 (UniProt Q9BXW6) | -0.228
35 | NRBP1 C307 (UniProt Q9UHY1) | -0.222
36 | OFD1 C766 (UniProt O75665) | -0.00822
37 | OSGEP C277 (UniProt Q9NPF4) | 0.216

same assay, conditions: 200 µM; treatment time: 4 h; cell line lysate: HEK293T

Row | Target | log2 mean competition ratio
38 | NT5DC1 C119 (UniProt Q5TFE4) | 0.184
39 | NUP188 C1270 (UniProt Q5SRE5) | -0.0228
40 | NSUN6 C415 (UniProt Q8TEA1) | 0.282
41 | NSUN3 C214 (UniProt Q9H649) | 0.0388
42 | NUDCD1 C111 (UniProt Q96RS6) | 0.103
43 | NUP160 C1166 (UniProt Q12769) | 0.102
44 | NR3C2 C308 | 0.0765
45 | NPEPPS C265 (UniProt P55786) | -0.224
46 | NTAN1 C118 (UniProt Q96AB6) | -0.0738
47 | NR3C2 C279 | 0.149
48 | NR3C1 C457 (UniProt P04150) | 0.126
49 | NSDHL C86 | -0.0998
50 | NUDT3 C68 (UniProt O95989) | -0.215
51 | NPTX1 C89 (UniProt Q15818) | -0.233
52 | OSBPL3 C337 (UniProt Q9H4L5) | -0.238
53 | NUDT9 C347 (UniProt Q9BW91) | 0.151
54 | NUP153 C593 (UniProt P49790) | 0.212
55 | NRDE2 C1088 (UniProt Q9H7Z3) | 0.0179
56 | NUMB C58 (UniProt P49757) | 0.301

Row | Target | log2 mean competition ratio
57 | NUDT18 C24 (UniProt Q6ZVK8) | -0.404
58 | NPLOC4 C188 | 0.0304
59 | NT5DC1 C197 (UniProt Q5TFE4) | -0.666
60 | ORC1 C506 (UniProt Q13415) | 0.0883
61 | NUBP1 C307 (UniProt P53384) | 0.463
62 | NUP85 C603 (UniProt Q9BW27) | 0.113
63 | OTUB2 C13 (UniProt Q96DC9) | -0.302
64 | NVL C309 (UniProt O15381) | 0.0778
65 | NSUN5 C41 (UniProt Q96P11) | -0.448
66 | NPC1 C1261 (UniProt O15118) | 0.0778
67 | NSMCE2 C140 (UniProt Q96MF7) | 0.0386
68 | NOVA2 C21 | 0.0575
69 | NR1D2 C374 | -0.11
70 | NUP155 C1344 (UniProt O75694) | 0.269
71 | OSBPL1A C520 (UniProt Q9BXW6) | -0.419
72 | NRBP1 C307 (UniProt Q9UHY1) | -0.406
73 | OFD1 C766 (UniProt O75665) | -0.0181
74 | OSGEP C277 (UniProt Q9NPF4) | -0.376
